The results in this text go back to the supplement of paper PMC12823440, “Inhibitors supercharge kinase turnover through native proteolytic circuits” (Nature, 2025).

Chains of the proteins cited; added tags and fusions are not shown. Lines headed by an entry give the natural chain unless they say otherwise; changes in a name come on top.
UniProt Q15131: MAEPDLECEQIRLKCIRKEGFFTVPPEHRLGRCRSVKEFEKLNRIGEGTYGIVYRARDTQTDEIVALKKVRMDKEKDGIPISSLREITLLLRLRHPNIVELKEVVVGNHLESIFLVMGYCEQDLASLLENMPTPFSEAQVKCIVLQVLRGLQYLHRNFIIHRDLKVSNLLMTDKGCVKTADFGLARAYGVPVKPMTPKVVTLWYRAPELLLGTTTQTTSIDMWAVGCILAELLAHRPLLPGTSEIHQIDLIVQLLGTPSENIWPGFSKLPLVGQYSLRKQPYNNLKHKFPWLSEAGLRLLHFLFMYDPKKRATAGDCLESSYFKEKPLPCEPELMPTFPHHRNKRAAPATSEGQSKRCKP
UniProt Q9BRS2: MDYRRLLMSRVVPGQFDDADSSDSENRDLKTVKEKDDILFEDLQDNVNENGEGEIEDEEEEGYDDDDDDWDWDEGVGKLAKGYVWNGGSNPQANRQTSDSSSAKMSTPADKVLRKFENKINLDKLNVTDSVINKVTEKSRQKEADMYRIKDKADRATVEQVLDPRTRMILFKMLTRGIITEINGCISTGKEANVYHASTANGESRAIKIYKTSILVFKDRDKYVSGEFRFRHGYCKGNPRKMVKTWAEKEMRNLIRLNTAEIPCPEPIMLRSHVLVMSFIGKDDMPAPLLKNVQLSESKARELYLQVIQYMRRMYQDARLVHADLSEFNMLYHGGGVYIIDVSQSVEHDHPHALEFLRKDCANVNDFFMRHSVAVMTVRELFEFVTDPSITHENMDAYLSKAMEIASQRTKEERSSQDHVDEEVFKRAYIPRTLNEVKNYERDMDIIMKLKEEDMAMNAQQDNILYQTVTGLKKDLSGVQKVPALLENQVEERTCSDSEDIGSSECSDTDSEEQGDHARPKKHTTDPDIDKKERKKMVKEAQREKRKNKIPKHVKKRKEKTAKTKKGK
UniProt Q96GD4, whole entry: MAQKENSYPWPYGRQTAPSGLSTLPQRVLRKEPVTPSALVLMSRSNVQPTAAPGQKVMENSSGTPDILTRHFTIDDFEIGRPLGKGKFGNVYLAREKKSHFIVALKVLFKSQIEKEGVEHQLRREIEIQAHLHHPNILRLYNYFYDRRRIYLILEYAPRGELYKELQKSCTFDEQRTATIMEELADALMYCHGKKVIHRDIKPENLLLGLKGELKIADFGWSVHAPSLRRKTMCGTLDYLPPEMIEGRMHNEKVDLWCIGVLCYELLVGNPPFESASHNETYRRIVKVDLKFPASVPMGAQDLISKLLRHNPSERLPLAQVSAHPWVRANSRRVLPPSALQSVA
UniProt P15056, whole entry, looked up: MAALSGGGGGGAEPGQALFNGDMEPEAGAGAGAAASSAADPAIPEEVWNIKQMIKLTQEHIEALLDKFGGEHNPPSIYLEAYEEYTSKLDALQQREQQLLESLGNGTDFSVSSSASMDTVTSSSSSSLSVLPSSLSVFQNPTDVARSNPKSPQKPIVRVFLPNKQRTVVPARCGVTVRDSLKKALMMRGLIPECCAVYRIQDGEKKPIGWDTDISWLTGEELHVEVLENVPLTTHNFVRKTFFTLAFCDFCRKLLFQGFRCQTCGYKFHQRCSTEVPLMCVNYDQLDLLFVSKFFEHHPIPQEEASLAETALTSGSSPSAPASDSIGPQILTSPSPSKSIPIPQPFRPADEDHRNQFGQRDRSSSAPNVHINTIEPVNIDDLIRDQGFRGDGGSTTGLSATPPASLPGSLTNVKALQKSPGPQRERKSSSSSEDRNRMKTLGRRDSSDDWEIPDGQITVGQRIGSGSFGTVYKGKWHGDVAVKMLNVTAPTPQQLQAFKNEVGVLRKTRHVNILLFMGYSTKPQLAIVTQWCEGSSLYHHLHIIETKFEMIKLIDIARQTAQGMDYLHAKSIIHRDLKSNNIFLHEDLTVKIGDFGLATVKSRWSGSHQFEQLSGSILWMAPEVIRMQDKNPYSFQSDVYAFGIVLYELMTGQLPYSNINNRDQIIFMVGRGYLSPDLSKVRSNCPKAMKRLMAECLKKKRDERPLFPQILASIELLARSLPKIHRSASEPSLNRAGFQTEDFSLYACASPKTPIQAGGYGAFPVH
UniProt Q92630: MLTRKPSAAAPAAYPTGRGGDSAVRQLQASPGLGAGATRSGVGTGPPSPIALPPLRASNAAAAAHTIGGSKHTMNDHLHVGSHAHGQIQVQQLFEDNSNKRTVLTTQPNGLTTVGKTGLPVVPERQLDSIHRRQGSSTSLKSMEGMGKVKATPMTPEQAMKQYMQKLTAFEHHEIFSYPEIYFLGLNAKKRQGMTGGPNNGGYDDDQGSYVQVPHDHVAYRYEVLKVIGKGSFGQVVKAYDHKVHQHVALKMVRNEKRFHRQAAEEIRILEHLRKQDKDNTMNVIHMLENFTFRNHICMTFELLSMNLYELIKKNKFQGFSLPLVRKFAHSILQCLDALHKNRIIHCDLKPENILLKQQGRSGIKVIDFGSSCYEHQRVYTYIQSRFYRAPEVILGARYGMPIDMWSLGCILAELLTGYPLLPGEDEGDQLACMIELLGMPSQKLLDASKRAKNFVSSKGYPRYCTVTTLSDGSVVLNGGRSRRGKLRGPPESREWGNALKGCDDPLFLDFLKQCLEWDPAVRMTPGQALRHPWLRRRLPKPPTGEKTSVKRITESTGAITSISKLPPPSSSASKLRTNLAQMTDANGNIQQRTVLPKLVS
UniProt P10398: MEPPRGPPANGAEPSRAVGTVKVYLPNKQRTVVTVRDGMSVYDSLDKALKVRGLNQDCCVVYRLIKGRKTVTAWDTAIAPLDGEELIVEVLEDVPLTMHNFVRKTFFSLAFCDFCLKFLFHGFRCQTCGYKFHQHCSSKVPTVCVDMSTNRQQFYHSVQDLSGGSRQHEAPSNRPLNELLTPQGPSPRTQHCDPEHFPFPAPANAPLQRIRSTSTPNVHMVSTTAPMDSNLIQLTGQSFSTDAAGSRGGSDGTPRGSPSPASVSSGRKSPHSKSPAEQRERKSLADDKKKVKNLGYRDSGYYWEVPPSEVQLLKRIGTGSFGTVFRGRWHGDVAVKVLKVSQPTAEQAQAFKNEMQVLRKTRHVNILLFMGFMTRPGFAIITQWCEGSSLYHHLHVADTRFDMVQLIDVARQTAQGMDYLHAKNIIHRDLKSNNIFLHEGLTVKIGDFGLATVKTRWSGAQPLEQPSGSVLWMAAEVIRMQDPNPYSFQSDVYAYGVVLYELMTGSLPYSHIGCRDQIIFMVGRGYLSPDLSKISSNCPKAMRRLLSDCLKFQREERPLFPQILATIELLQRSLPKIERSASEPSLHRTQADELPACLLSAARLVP
UniProt Q00526: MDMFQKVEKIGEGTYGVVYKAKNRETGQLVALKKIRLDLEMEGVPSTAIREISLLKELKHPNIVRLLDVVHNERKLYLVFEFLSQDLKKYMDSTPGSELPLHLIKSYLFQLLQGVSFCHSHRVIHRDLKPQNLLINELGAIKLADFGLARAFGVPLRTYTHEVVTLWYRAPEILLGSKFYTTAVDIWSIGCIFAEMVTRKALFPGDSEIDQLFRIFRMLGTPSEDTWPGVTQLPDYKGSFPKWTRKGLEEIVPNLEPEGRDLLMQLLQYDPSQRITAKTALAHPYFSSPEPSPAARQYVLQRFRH
UniProt Q9UQM7, whole entry: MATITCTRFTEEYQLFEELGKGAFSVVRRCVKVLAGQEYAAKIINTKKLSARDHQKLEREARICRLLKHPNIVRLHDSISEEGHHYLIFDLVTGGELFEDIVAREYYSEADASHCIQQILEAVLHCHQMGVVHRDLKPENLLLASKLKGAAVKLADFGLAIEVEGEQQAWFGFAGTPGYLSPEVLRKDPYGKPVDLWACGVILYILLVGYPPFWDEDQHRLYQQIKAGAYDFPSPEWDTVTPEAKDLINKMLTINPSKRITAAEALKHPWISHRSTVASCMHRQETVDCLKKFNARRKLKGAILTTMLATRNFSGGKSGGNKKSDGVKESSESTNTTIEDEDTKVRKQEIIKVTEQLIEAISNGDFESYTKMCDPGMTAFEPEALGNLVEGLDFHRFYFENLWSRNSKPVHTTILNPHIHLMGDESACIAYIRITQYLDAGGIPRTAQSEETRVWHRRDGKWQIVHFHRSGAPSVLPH
UniProt P28482, whole entry: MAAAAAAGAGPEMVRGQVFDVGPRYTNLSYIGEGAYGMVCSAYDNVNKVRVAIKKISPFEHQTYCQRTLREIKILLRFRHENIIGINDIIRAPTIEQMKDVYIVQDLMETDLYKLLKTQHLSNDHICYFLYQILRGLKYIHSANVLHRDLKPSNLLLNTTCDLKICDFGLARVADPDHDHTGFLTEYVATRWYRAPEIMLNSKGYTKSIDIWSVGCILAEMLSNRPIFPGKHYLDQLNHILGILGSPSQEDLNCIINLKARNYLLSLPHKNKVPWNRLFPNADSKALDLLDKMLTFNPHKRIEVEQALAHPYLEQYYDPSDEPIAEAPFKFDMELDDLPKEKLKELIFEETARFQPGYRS
UniProt Q9BUB5: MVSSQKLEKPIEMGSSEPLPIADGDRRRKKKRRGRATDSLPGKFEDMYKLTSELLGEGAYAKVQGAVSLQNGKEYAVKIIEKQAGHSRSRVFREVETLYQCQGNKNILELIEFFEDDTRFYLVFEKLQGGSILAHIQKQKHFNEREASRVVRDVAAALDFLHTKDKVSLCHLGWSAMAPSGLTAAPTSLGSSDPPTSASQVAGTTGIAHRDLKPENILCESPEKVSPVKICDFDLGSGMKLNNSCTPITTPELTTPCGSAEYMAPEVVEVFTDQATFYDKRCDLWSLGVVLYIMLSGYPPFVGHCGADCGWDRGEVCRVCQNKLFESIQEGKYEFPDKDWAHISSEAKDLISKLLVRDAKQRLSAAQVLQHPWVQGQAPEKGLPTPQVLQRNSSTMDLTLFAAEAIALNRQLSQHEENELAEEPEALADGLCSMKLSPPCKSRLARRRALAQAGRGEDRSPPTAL
UniProt Q9UBF8: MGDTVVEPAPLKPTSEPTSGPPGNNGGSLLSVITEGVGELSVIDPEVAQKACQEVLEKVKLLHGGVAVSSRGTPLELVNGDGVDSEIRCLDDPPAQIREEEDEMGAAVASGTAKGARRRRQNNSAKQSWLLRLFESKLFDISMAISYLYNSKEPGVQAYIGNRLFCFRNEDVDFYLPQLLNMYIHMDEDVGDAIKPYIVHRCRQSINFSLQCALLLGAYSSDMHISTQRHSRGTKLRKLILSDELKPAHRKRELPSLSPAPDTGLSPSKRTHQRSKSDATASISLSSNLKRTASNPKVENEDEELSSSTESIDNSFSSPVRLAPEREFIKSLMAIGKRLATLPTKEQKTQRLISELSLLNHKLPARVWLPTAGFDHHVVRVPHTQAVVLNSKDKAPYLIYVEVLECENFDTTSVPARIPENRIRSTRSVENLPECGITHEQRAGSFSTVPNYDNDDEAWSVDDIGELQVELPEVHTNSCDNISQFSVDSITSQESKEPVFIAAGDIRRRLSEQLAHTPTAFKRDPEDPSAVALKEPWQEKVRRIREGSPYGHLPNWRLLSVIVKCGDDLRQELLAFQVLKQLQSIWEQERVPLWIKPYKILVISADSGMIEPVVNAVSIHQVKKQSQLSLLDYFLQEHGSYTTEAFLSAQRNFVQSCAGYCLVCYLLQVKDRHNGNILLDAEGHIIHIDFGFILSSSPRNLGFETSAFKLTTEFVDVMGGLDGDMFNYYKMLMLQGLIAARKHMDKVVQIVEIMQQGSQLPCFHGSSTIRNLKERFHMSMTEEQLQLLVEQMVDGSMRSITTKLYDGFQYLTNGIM

The other results are listed elsewhere or left out. Hit calls seldom repeat between salt and free forms of one compound.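 Kinases were expressed as nanoluciferase fusions in K562 cells and luminescence was read every 4 h between 2 and 18 h as percent of control, DMSO set to 100% and a positive control to 0%. A time point counts as decreased when the signal drops significantly (2 sigma). The hit call is the authors' own, does not follow from the count of time points alone, and its rule is not shown.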

Compound in the first experiment: CN1CCN(c2ccc3nc(-c4c(N)c5c(F)cccc5[nH]c4=O)[nH]c3c2)CC1 [Dovitinib (lactate)]
Kind of experiment: number of time points (of 5) at which kinase-Nluc abundance scored as decreased, DMSO-normalised (count); higher = more persistent destabilization. The following applies: 2.5 µM; K562; 2-18 h.
ULK3 (UniProt Q6PHR2): the “number of time points” value was determined as 0.
Take DDR1 (UniProt Q08345): the “number of time points” value was 0.
In the case of CDK10 (UniProt Q15131), the “number of time points” value is 0.
On the same count and under the same terms, next, RIOK1 (UniProt Q9BRS2): 0.
Take YES1 (UniProt P07947): the “number of time points” value came to 0.
The same measure, in the same setting: for AURKB (UniProt Q96GD4) the value was 0.
Same read-out and setting: for BRAF (UniProt P15056) the value was 0; for DYRK2 (UniProt Q92630), 0.
For the target ARAF (UniProt P10398), the “number of time points” value came out at 0.
For MAP2K2 (UniProt P36507), the “number of time points” value turned out to be 0.
Turning to CDK2 (UniProt P24941), the “number of time points” value was determined as 0.
Same read-out and setting: next, PDPK1 (UniProt O15530): 0; STK24 (UniProt Q9Y6E0): 0.
Regarding PAK4 (UniProt O96013), the “number of time points” value was 0.
The same measure, in the same setting: for ZAK (UniProt Q9NYL2) the value was 0; for NTRK2 (UniProt Q16620), 0; for CDK3 (UniProt Q00526), 0.
The same measure, in the same setting: for CAMK2A (UniProt Q9UQM7) the value was 0; for RIPK2 (UniProt O43353), 0; for CAMK2G (UniProt Q13555), 0.
Same read-out and setting: for DYRK1B (UniProt Q9Y463) the value was 0; for PRKCA (UniProt P17252), 0.
Consider MAPK1 (UniProt P28482), for which the “number of time points” value was found to be 0.
Still for that read-out and setting: for MKNK1 (UniProt Q9BUB5) the value was 0; for FGR (UniProt P09769), 0.
The same measure, in the same setting: next, RIPK1 (UniProt Q13546): 1; AKT1 (UniProt P31749): 0.
For the target MAPKAPK2 (UniProt P49137), the “number of time points” value amounted to 0.
Consider SRC (UniProt P12931), for which the “number of time points” value amounted to 0.
On the same count and under the same terms, for PIK4CB (UniProt Q9UBF8) the value was 0; for MAP2K1 (UniProt Q02750), 0.

Compound in the next experiment: CN1CCN(c2ccc3nc(-c4c(N)c5c(F)cccc5[nH]c4=O)[nH]c3c2)CC1 [Dovitinib]
The description is as above. The following applies: 2.5 µM; K562; 2-18 h.
As to ULK3 (UniProt Q6PHR2), the “number of time points” value is 0.
Still for that read-out and setting: next, DDR1 (UniProt Q08345): 0.
Regarding CDK10 (UniProt Q15131), the “number of time points” value turned out to be 0.
Same read-out and setting: next, RIOK1 (UniProt Q9BRS2): 0; YES1 (UniProt P07947): 0; AURKB (UniProt Q96GD4): 0.
Still for that read-out and setting: next, BRAF (UniProt P15056): 0; DYRK2 (UniProt Q92630): 0; ARAF (UniProt P10398): 0.
With MAP2K2 (UniProt P36507), the “number of time points” value was 0.
For the target CDK2 (UniProt P24941), the “number of time points” value amounted to 0.
Turning to PDPK1 (UniProt O15530), the “number of time points” value is 0.
Same read-out and setting: for STK24 (UniProt Q9Y6E0) the value was 0; for PAK4 (UniProt O96013), 0; for ZAK (UniProt Q9NYL2), 0.
Still for that read-out and setting: next, NTRK2 (UniProt Q16620): 0.
For the target CDK3 (UniProt Q00526), the “number of time points” value worked out at 0.
In the case of CAMK2A (UniProt Q9UQM7), the “number of time points” value came to 0.
On to RIPK2 (UniProt O43353), for which the “number of time points” value amounted to 0.
Same read-out and setting: for CAMK2G (UniProt Q13555) the value was 0; for DYRK1B (UniProt Q9Y463), 0; for PRKCA (UniProt P17252), 0.
On the same count and under the same terms, next, MAPK1 (UniProt P28482): 0; MKNK1 (UniProt Q9BUB5): 0.
The same measure, in the same setting: for FGR (UniProt P09769) the value was 0; for RIPK1 (UniProt Q13546), 0; for AKT1 (UniProt P31749), 0.
With MAPKAPK2 (UniProt P49137), the “number of time points” value amounted to 0.
Consider SRC (UniProt P12931), for which the “number of time points” value came out at 0.
On the same count and under the same terms, for PIK4CB (UniProt Q9UBF8) the value was 0; for MAP2K1 (UniProt Q02750), 0.
